Out of some 220,000 compounds screened, about 2,400 (1.1%) were called active. The shares of active, inactive and inconclusive entries below differ from those in the screen. Calls come from the whole dose curve; as a rule, active = well fitted inhibition curve with a large enough effect; inconclusive = small, poorly fitted or top-dose-only effect, or effect the other way; inactive = no such curve, though single readings can be large or run the other way. Potencies of inconclusive entries are doubtful fits and often do not repeat. Where a structure was tested more than once in an assay, its records may differ in their call.
test: qHTS Multiplex Assay to Identify Dual Action Probes in a Cell Model of Huntington: Aggregate Formation (GFP); details: PC12 HttQ103-GFP aggregates, Acumen cytometry, 40 h; activity change, negative = inhibition: at 46.1 µM (top of the series); note: nearly all actives have a fitted effect of over 60% in size
Procedure, shortened: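 Aggregate formation scored by laser-scanning cytometer (488 excitation, 500–530 emission) in lysed PC12 cells expressing Q103-GFP after 100 nM tebufenozide induction; library tested in dose series, with ATPLite reagent added in the multiplex.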
% is set by controls: 0 for no effect and ±100 for the full control effect; potency is the fitted concentration of half-maximal effect.

Structure (SMILES) | Potency | activity change, negative = inhibition
CCCCCCCSc1cc(OC)c(CCN(C)C)cc1OC | active: 10 µM | 
C=CCN1C(=O)NC(=O)/C(=C/c2ccc(N(C)C)c(Br)c2)C1=O | inconclusive: 3.55 µM [activator, single point] | 
CC(C)(C)c1cc([N+](=O)[O-])cc(C(C)(C)C)c1O | active: 7.94 µM | 
CCn1cc(CN(C)S(=O)(=O)c2ccc3ccccc3c2)c(C)n1 | inconclusive: 2.82 µM [inhibitor, full curve, poor fit] | 
O=C1NC(=O)C2(Cc3ccccc3N3CCCC32)C(=O)N1c1ccc(Cl)cc1 (stereo not given) |  | inactive: 4.09%
COC(C(=O)C(O)C(C)O)C1Cc2cc3cc(OC4CC(OC5CC(O)C(OC)C(C)O5)C(OC(C)=O)C(C)O4)c(C)c(O)c3c(O)c2C(=O)C1OC1CC(OC2CC(OC3CC(C)(O)C(OC(C)=O)C(C)O3)C(O)C(C)O2)C(O)C(C)O1 (stereo not given) | active: 0.178 µM | 
CN1C(=O)C(=Cc2c(OCc3cnc(Cl)s3)ccc3ccccc23)C(=O)N(C)C1=O |  | inactive: 15% [at 9.22 µM]
CCCCCCCCCCCCn1ccc(=N)cc1 | inconclusive: 2.24 µM [inhibitor, partial curve] | 
O=C(O)C12C3CCCC1C32c1ccccc1 (stereo not given) | inconclusive: 1 µM [activator, single point] | 
CCCCCCn1c(=O)c(C(=O)Nc2cnccn2)c(O)c2ccccc21 | inconclusive: 2.24 µM [inhibitor, full curve] | 
Cn1nc(-c2ccc(OCC(=O)N3CCN(Cc4ccccc4)CC3)cc2)c2ccccc2c1=O | inconclusive: 7.08 µM [inhibitor, partial curve] | 
O=c1[nH]c(=S)[nH]c(O)c1N=Nc1ccc(SC(F)F)cc1 |  | inactive: -16.3% [at 9.22 µM]
CCN1C(=O)C(=Cc2cc(C)n(C3CC3)c2C)C(=O)N(CC)C1=S | inconclusive: 25.1 µM [activator, single point] | 
COC(=O)C1C2c3ccccc3OC1(C)N=c1s/c(=C/c3cnn(C)c3)c(=O)n12 (stereo not given) |  | inactive: 1.48%
CC(=NCc1cccnc1)c1c(O)n(-c2ccccc2)c(=O)[nH]c1=O |  | inactive: -1.25%
C=C(C)Cn1c(=O)n(CC2CS2)c2ccccc21 (stereo not given) | inconclusive: 3.98 µM [activator, single point] | 
CN(C)C(=S)SSC(=S)N(C)C | active: 1 µM | 
CCC(=Nc1ccc(OC)cc1OC)c1c(O)n(C)c(=O)n(C)c1=O | inconclusive: 25.1 µM [inhibitor, single point] | 
Cc1ccc(N2C(=O)NC(=O)/C(=C/C=C/c3ccco3)C2=O)cc1 | inconclusive: 25.1 µM [inhibitor, single point] | 
CCC(=NCc1ccc2c(c1)OCO2)c1c(O)n(C)c(=O)n(C)c1=O | active: 20 µM | 
CC1CCC/C=C/C2CC(O)CC2C(O)/C=C/C(=O)O1 (stereo not given) | active: 1 µM | 
CN1C(=O)/C(=C/c2ccc(N3CCCCCC3)o2)C(=O)NC1=S | inconclusive: 22.4 µM [activator, single point] | 
CC(C)CCNc1nnnc2c1sc1nc(N3CCOCC3)c3c(c12)CC(C)(C)SC3 | inconclusive: 4.47 µM [activator, single point] | 
O=C(Nc1ccc2nc(-c3cccs3)c(-c3cccs3)nc2c1)NC1CC1 | inconclusive: 22.4 µM [inhibitor, single point] | 
O=C1NC(=S)NC(=O)C1=Cc1cccn1-c1ccc(O)cc1 | inconclusive: 31.6 µM [inhibitor, single point] | 
C=C1C(=O)O[C@@H]2C[C@@H](C)[C@@H]3C=CC(=O)[C@@]3(C)[C@@H](OC(=O)CC(=O)O[C@H]3[C@@H]4C(=C)C(=O)O[C@@H]4C[C@@H](C)[C@@H]4C=CC(=O)[C@]43C)[C@H]12 | active: 0.631 µM | 
CCOCCCn1c(N)c(C(=O)Nc2sc3c(c2C(=O)OC)CCCC3)c2nc3ccccc3nc21 | inconclusive: 35.5 µM [inhibitor, single point] | 
CCC(=Nc1ccc(Cc2ccncc2)cc1)c1c(O)n(C)c(=O)n(C)c1=O | inconclusive: 14.1 µM [inhibitor, single point] | 

Structure (SMILES) | Potency | activity change, negative = inhibition
O=C1C(=O)c2ccccc2-c2ccccc21 | inconclusive: 2.82 µM [inhibitor, full curve] | 
CCc1ccccc1N1C(=O)NC(=O)/C(=C\c2cc(C)n(C)c2C)C1=O | inconclusive: 35.5 µM [activator, single point] | 
O=C(C1CC(c2ccc(Cl)c(Cl)c2)=NO1)N1CCC2(CC1)OCCO2 (stereo not given) | inconclusive: 35.5 µM [inhibitor, single point] | 
O=C(c1csc2c1CCCCC2)N1CCC2(CC1)OCCO2 |  | inactive: 22.3%
O=C1NC(=O)N(c2ccccc2)C(=O)/C1=C\c1ccc([N+](=O)[O-])o1 |  | inactive: -13.6% [at 9.22 µM]
O=c1[nH]cc(F)c(=O)[nH]1 | inconclusive: 2 µM [inhibitor, partial curve] | 
O=C1NC(=O)C(=Cc2ccccc2OCCOc2ccc([N+](=O)[O-])cc2)C(=O)N1 |  | inactive: -1.33%
CC(C)c1oc(=O)cc2c1[C@@H](O)[C@H]1OC(=O)[C@@]3(C)C[C@@H](O)[C@@H](O)[C@@]2(C)C13 (stereo not given in full) | inconclusive: 35.5 µM [inhibitor, partial curve] | 
COc1ccc(OC)c(N2C(=O)NC(=O)/C(=C\c3ccc([N+](=O)[O-])s3)C2=O)c1 | inconclusive: 35.5 µM [inhibitor, single point] | 
Nc1c(C(=O)NCc2ccco2)c2nc3ccccc3nc2n1Cc1ccc(F)cc1 | inconclusive: 17.8 µM [inhibitor, single point] | 
c1ccc(Cc2nn3c(Cn4cnc5ccccc54)nnc3s2)cc1 | inconclusive: 2 µM [inhibitor, single point] | 
CN(CCOc1ccc(C=C2C(=O)NC(=O)NC2=O)cc1)c1ccccn1 | inconclusive: 3.55 µM [activator, full curve, poor fit] | 
CCSc1nnc([C@@H](N)Cc2ccccc2)o1 |  | inactive: 5.49%
N#CC(C(=O)C12CC3CC(CC(C3)C1)C2)c1nc2ccccc2[nH]1 (stereo not given) | inconclusive: 35.5 µM [inhibitor, single point] | 
COc1ccc2c(CN3CC=C(c4ccccc4)CC3)cc(=O)oc2c1 |  | inactive: 3.05%
Cc1ccc(-n2c(C)cc(/C=C3/C(=O)NC(=O)N(Cc4ccco4)C3=O)c2C)cc1 |  | inactive: 12.1%
C=C1C(=O)O[C@H]2C[C@@H](C)[C@@H]3C=CC(=O)[C@@]3(C)C[C@H]12 | inconclusive: 5.62 µM [inhibitor, single point] | 
Cc1cccc(N2C(=O)NC(=O)/C(=C\c3cccn3-c3ccc(Cl)cc3)C2=O)c1 | inconclusive: 28.2 µM [inhibitor, single point] | 
Cc1cccc(-n2c(/C=C/c3ccc([N+](=O)[O-])o3)nc3ccccc3c2=O)c1 | inconclusive: 5.62 µM [inhibitor, single point] | 
Cc1cccn2c(=O)c3c(nc12)N1CCC(Cc2ccccc2)CC1C1(C3)C(=O)N(C)C(=O)N(C)C1=O (stereo not given) | inconclusive: 35.5 µM [inhibitor, single point] | 
N#Cc1ccc(Cn2cc(C(=O)c3ccco3)c3ccccc32)cc1 | inconclusive: 35.5 µM [inhibitor, single point] | 
CN1CC[C@@]23CCCC[C@@H]2[C@@H]1Cc1ccc(O)cc13 | inconclusive: 35.5 µM [activator, partial curve] | 
Cn1c(NN=O)nc2ccccc21 | inconclusive: 4.47 µM [inhibitor, single point] | 
CCCCn1c(NC(=O)c2ccc(Br)o2)c(C(=O)OCC)c2nc3ccccc3nc21 | inconclusive: 17.8 µM [inhibitor, single point] | 
N#CC1=C(N)Oc2c(c(=O)sc3ccccc23)C1c1ccncc1 (stereo not given) |  | inactive: -15.8%
CN1CCN(c2ccc([N+](=O)[O-])c(N3CCCCC3)c2)CC1 |  | inactive: 13.9% [at 9.22 µM]
O=C(CN1CCCCC1)c1ccc(OC(F)F)cc1 | inconclusive: 35.5 µM [inhibitor, single point] | 

Exported field by field: part of the list above.
Cc1cccn2c(=O)c3c(nc12)N1CCC(Cc2ccccc2)CC1C1(C3)C(=O)N(C)C(=O)N(C)C1=O (stereo not given)
  Potency: inconclusive: 35.5 µM [inhibitor, single point]
N#Cc1ccc(Cn2cc(C(=O)c3ccco3)c3ccccc32)cc1
  Potency: inconclusive: 35.5 µM [inhibitor, single point]
CN1CC[C@@]23CCCC[C@@H]2[C@@H]1Cc1ccc(O)cc13
  Potency: inconclusive: 35.5 µM [activator, partial curve]
Cn1c(NN=O)nc2ccccc21
  Potency: inconclusive: 4.47 µM [inhibitor, single point]
